Publication PMC10595033
Results are given in words; binding and its absence hold for the method and conditions named. In cells and extracts the contact can be indirect. Some entries that bind do so weakly or less than the wild type.

T1: electrogenic Na+/HCO3- cotransporter 1 (NBCe1) (mouse (endogenous in mouse brain)) (UniProt O88343)
T1 sequence: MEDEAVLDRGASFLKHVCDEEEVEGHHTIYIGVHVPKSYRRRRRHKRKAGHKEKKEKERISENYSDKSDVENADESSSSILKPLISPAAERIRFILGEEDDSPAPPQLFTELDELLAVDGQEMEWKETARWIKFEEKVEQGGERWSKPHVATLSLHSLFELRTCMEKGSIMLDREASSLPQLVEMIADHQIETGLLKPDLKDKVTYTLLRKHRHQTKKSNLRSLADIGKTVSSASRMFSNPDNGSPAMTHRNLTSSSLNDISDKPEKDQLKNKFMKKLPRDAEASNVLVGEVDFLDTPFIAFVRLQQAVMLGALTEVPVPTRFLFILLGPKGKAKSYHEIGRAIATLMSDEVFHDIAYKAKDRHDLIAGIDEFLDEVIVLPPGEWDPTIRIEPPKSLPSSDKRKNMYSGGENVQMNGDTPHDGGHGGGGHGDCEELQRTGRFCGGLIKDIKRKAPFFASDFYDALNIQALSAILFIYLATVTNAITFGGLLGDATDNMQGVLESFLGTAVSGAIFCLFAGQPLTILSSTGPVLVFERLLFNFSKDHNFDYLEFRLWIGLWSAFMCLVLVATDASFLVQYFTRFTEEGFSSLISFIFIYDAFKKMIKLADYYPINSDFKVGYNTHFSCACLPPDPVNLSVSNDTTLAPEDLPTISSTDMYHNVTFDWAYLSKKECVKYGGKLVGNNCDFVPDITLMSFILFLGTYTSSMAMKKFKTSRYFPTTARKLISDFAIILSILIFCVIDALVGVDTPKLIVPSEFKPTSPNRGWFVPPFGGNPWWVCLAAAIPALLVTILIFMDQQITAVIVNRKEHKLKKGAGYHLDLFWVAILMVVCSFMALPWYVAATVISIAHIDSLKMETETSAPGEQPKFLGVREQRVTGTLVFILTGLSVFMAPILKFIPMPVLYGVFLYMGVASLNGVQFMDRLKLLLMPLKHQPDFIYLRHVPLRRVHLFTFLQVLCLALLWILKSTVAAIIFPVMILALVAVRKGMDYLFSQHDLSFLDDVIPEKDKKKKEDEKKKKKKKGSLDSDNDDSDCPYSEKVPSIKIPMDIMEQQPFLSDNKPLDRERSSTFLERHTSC

T2: K+/Cl- cotransporter 2 (KCC2) (mouse (endogenous in mouse brain)) (UniProt Q91V14)
T2 sequence: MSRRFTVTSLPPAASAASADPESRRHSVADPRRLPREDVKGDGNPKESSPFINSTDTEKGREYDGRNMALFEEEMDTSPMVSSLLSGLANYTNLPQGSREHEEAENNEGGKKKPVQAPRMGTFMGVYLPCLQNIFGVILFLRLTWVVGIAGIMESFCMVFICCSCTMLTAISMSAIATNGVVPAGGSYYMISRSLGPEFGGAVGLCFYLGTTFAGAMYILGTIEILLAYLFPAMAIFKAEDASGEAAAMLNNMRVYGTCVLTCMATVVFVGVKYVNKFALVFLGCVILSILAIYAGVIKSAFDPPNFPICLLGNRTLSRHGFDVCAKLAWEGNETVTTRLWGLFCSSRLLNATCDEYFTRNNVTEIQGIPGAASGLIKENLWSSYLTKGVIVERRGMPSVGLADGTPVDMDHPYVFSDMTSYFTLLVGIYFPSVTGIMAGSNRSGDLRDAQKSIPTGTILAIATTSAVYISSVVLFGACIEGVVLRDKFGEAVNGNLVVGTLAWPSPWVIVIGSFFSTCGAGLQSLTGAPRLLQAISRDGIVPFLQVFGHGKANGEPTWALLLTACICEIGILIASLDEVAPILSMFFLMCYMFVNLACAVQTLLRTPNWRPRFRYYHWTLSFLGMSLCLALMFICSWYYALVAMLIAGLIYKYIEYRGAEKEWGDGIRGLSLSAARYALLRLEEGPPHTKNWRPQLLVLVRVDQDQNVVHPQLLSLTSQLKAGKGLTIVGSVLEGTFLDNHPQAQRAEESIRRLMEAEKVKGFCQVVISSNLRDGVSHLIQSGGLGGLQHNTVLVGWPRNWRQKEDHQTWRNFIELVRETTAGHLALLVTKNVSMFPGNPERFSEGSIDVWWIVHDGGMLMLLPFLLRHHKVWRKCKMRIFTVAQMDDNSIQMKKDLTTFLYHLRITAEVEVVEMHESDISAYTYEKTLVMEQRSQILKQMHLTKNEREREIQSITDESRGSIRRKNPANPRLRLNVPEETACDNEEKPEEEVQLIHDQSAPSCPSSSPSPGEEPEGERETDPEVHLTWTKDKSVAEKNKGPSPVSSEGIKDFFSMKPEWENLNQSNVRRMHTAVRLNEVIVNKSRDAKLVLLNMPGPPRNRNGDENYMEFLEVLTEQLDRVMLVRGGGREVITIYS


What was measured:
[1] = target: T1, electrogenic Na+/HCO3- cotransporter 1 (NBCe1) (mouse (endogenous in mouse brain)); test: co-IP; whole tissue homogenate from newborn (P0) mouse hippocampus in non-denaturing lysis buffer; 500 ug protein, precleared; anti-KCC2, anti-SLC4A4 or mouse IgG on protein A-Sepharose beads, overnight at 4°C; immunoblot
[2] = target: T1, electrogenic Na+/HCO3- cotransporter 1 (NBCe1) (mouse (endogenous in mouse brain)); test: co-IP; crude membranes from 3-5 month-old mouse whole brain in non-denaturing lysis buffer (50 mM Tris-HCl pH 7.4, 300 mM NaCl, 5 mM EDTA, Triton X-100); 500 ug protein, precleared; anti-KCC2, anti-SLC4A4 or mouse IgG on protein A-Sepharose beads, overnight at 4°C; immunoblot
[3] = target: T2, K+/Cl- cotransporter 2 (KCC2) (mouse (endogenous in mouse brain)); test: co-IP; whole tissue homogenate from newborn (P0) mouse hippocampus in non-denaturing lysis buffer; 500 ug protein, precleared; anti-KCC2, anti-SLC4A4 or mouse IgG on protein A-Sepharose beads, overnight at 4°C; immunoblot
[4] = target: T2, K+/Cl- cotransporter 2 (KCC2) (mouse (endogenous in mouse brain)); test: co-IP; crude membranes from 3-5 month-old mouse whole brain in non-denaturing lysis buffer (50 mM Tris-HCl pH 7.4, 300 mM NaCl, 5 mM EDTA, Triton X-100); 500 ug protein, precleared; anti-KCC2, anti-SLC4A4 or mouse IgG on protein A-Sepharose beads, overnight at 4°C; immunoblot

Row | binding [1] | binding [2] | binding [3] | binding [4] | Binder
1 | binds | binds |  |  | K+/Cl- cotransporter 2 (KCC2) (protein, UniProt Q91V14 1-1138) MSRRFTVTSLPPAASAASADPESRRHSVADPRRLPREDVKGDGNPKESSPFINSTDTEKGREYDGRNMALFEEEMDTSPMVSSLLSGLANYTNLPQGSREHEEAENNEGGKKKPVQAPRMGTFMGVYLPCLQNIFGVILFLRLTWVVGIAGIMESFCMVFICCSCTMLTAISMSAIATNGVVPAGGSYYMISRSLGPEFGGAVGLCFYLGTTFAGAMYILGTIEILLAYLFPAMAIFKAEDASGEAAAMLNNMRVYGTCVLTCMATVVFVGVKYVNKFALVFLGCVILSILAIYAGVIKSAFDPPNFPICLLGNRTLSRHGFDVCAKLAWEGNETVTTRLWGLFCSSRLLNATCDEYFTRNNVTEIQGIPGAASGLIKENLWSSYLTKGVIVERRGMPSVGLADGTPVDMDHPYVFSDMTSYFTLLVGIYFPSVTGIMAGSNRSGDLRDAQKSIPTGTILAIATTSAVYISSVVLFGACIEGVVLRDKFGEAVNGNLVVGTLAWPSPWVIVIGSFFSTCGAGLQSLTGAPRLLQAISRDGIVPFLQVFGHGKANGEPTWALLLTACICEIGILIASLDEVAPILSMFFLMCYMFVNLACAVQTLLRTPNWRPRFRYYHWTLSFLGMSLCLALMFICSWYYALVAMLIAGLIYKYIEYRGAEKEWGDGIRGLSLSAARYALLRLEEGPPHTKNWRPQLLVLVRVDQDQNVVHPQLLSLTSQLKAGKGLTIVGSVLEGTFLDNHPQAQRAEESIRRLMEAEKVKGFCQVVISSNLRDGVSHLIQSGGLGGLQHNTVLVGWPRNWRQKEDHQTWRNFIELVRETTAGHLALLVTKNVSMFPGNPERFSEGSIDVWWIVHDGGMLMLLPFLLRHHKVWRKCKMRIFTVAQMDDNSIQMKKDLTTFLYHLRITAEVEVVEMHESDISAYTYEKTLVMEQRSQILKQMHLTKNEREREIQSITDESRGSIRRKNPANPRLRLNVPEETACDNEEKPEEEVQLIHDQSAPSCPSSSPSPGEEPEGERETDPEVHLTWTKDKSVAEKNKGPSPVSSEGIKDFFSMKPEWENLNQSNVRRMHTAVRLNEVIVNKSRDAKLVLLNMPGPPRNRNGDENYMEFLEVLTEQLDRVMLVRGGGREVITIYS
2 |  |  | binds | binds | electrogenic Na+/HCO3- cotransporter 1 (NBCe1) (protein, UniProt O88343 1-1079) MEDEAVLDRGASFLKHVCDEEEVEGHHTIYIGVHVPKSYRRRRRHKRKAGHKEKKEKERISENYSDKSDVENADESSSSILKPLISPAAERIRFILGEEDDSPAPPQLFTELDELLAVDGQEMEWKETARWIKFEEKVEQGGERWSKPHVATLSLHSLFELRTCMEKGSIMLDREASSLPQLVEMIADHQIETGLLKPDLKDKVTYTLLRKHRHQTKKSNLRSLADIGKTVSSASRMFSNPDNGSPAMTHRNLTSSSLNDISDKPEKDQLKNKFMKKLPRDAEASNVLVGEVDFLDTPFIAFVRLQQAVMLGALTEVPVPTRFLFILLGPKGKAKSYHEIGRAIATLMSDEVFHDIAYKAKDRHDLIAGIDEFLDEVIVLPPGEWDPTIRIEPPKSLPSSDKRKNMYSGGENVQMNGDTPHDGGHGGGGHGDCEELQRTGRFCGGLIKDIKRKAPFFASDFYDALNIQALSAILFIYLATVTNAITFGGLLGDATDNMQGVLESFLGTAVSGAIFCLFAGQPLTILSSTGPVLVFERLLFNFSKDHNFDYLEFRLWIGLWSAFMCLVLVATDASFLVQYFTRFTEEGFSSLISFIFIYDAFKKMIKLADYYPINSDFKVGYNTHFSCACLPPDPVNLSVSNDTTLAPEDLPTISSTDMYHNVTFDWAYLSKKECVKYGGKLVGNNCDFVPDITLMSFILFLGTYTSSMAMKKFKTSRYFPTTARKLISDFAIILSILIFCVIDALVGVDTPKLIVPSEFKPTSPNRGWFVPPFGGNPWWVCLAAAIPALLVTILIFMDQQITAVIVNRKEHKLKKGAGYHLDLFWVAILMVVCSFMALPWYVAATVISIAHIDSLKMETETSAPGEQPKFLGVREQRVTGTLVFILTGLSVFMAPILKFIPMPVLYGVFLYMGVASLNGVQFMDRLKLLLMPLKHQPDFIYLRHVPLRRVHLFTFLQVLCLALLWILKSTVAAIIFPVMILALVAVRKGMDYLFSQHDLSFLDDVIPEKDKKKKEDEKKKKKKKGSLDSDNDDSDCPYSEKVPSIKIPMDIMEQQPFLSDNKPLDRERSSTFLERHTSC
